Results are given in words; binding and its absence hold for the method and conditions named.
Target: HNF-1A DBD-TAD (His6-TEV-DBD-TAD construct, residues 83-631 of human hepatocyte nuclear factor 1α) (human) (UniProt P20823)
Test: SAXS; batch mode, DBD-TAD at ~2.5 mg/mL, 4 mM Tris pH 8.5, 100 mM NaCl, 1 mM TCEP, 10°C; molecular weight estimates by the Vc and SAXSMoW methods; both purified

By UniProt entry, the sequences of proteins in these tests, tags left out. Where a name states a change or a piece, a line headed by the entry shows the natural chain unless it says otherwise. Residues count along the entry.
UniProt P20823, residues 83-631: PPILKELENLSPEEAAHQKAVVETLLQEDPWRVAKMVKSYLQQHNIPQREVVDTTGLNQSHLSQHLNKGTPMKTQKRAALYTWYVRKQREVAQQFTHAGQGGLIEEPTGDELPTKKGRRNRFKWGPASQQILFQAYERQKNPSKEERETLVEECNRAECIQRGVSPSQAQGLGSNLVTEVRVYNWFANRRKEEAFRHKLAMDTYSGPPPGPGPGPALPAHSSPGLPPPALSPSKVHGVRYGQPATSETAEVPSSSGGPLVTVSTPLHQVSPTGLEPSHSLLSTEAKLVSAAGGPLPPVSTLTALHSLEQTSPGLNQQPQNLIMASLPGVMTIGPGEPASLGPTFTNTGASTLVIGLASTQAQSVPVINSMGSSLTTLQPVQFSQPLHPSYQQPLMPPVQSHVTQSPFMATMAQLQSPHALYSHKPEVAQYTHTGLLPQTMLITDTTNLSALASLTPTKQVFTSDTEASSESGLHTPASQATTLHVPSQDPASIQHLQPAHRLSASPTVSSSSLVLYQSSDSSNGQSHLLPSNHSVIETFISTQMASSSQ

binding: no binding (tested: ~2.5 mg/mL)
Substance: HNF-1A DBD-TAD (His6-TEV-DBD-TAD construct, residues 83-631 of human hepatocyte nuclear factor 1α) (from UniProt P20823-1 83-631) (domain or fragment)

— article PMC10613711
